PubChem BioAssay AID1508597 | Cure First, 2020

- Test: 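Genes whose silencing sensitises or protects ovarian cancer cells against rucaparib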 (primary screen)
- Cells: human ovarian carcinoma lines grown from tumours: OCI-P5x (papillary serous) and OCI-C5x (clear cell)
- Reagent: siRNA pool against human genes, 1.25 pmol siRNA per well
- Time to read-out: 72 h or 96 h, depending on the cell culture
- Treatment: rucaparib 20 µM (about IC30) or vehicle, present until read-out
- Read-out: 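Luminescent ATP-based viability assay read 72 or 96 h after transfection, depending on culture, given as normalised percent viability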
- Reading the numbers: viability, normalised: higher = more viable cells remaining
- Hit rule: 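Active when normalised viability falls below 80 percent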
- Calls: active = viability under 80%; inactive = viability 80% or more
The whole screen tested about 2,100 reagents; below is an unselected part. 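Calls flag viability under 80% in either arm, not effects specific to rucaparib; the reference for percent is not stated.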 A number with no mark means an inactive call. No sequences are given here. Not stated in the record: the 100% reference.

NEK8 (GeneID 284086), rucaparib or vehicle Rucaparib, cell line OCI-C5x (clear cell), technical replicate 1 — viability, normalised (%) = 54.3 (active)
NEK8 (GeneID 284086), rucaparib or vehicle Rucaparib, cell line OCI-C5x (clear cell), technical replicate 2 — viability, normalised (%) = 60.6 (active)
NEK8 (GeneID 284086), rucaparib or vehicle Rucaparib, cell line OCI-C5x (clear cell), technical replicate 3 — viability, normalised (%) = 47.6 (active)
NEK8 (GeneID 284086), rucaparib or vehicle Rucaparib, cell line OCI-P5x (serous), technical replicate 1 — viability, normalised (%) = 79.4 (active)
NEK8 (GeneID 284086), rucaparib or vehicle Rucaparib, cell line OCI-P5x (serous), technical replicate 2 — viability, normalised (%) = 86.5
NEK8 (GeneID 284086), rucaparib or vehicle Rucaparib, cell line OCI-P5x (serous), technical replicate 3 — viability, normalised (%) = 52.5 (active)
NEK8 (GeneID 284086), rucaparib or vehicle Vehicle, cell line OCI-C5x (clear cell), technical replicate 1 — viability, normalised (%) = 57 (active)
NEK8 (GeneID 284086), rucaparib or vehicle Vehicle, cell line OCI-C5x (clear cell), technical replicate 2 — viability, normalised (%) = 40.5 (active)
NEK8 (GeneID 284086), rucaparib or vehicle Vehicle, cell line OCI-C5x (clear cell), technical replicate 3 — viability, normalised (%) = 41.2 (active)
NEK8 (GeneID 284086), rucaparib or vehicle Vehicle, cell line OCI-P5x (serous), technical replicate 1 — viability, normalised (%) = 77.6 (active)
NEK8 (GeneID 284086), rucaparib or vehicle Vehicle, cell line OCI-P5x (serous), technical replicate 2 — viability, normalised (%) = 75.2 (active)
NEK8 (GeneID 284086), rucaparib or vehicle Vehicle, cell line OCI-P5x (serous), technical replicate 3 — viability, normalised (%) = 81.1

3 successive entries already listed:
NEK8 (GeneID 284086), rucaparib or vehicle Rucaparib, cell line OCI-P5x (serous), technical replicate 1 — viability, normalised (%) = 79.4 (active)
NEK8 (GeneID 284086), rucaparib or vehicle Rucaparib, cell line OCI-P5x (serous), technical replicate 2 — viability, normalised (%) = 86.5
NEK8 (GeneID 284086), rucaparib or vehicle Rucaparib, cell line OCI-P5x (serous), technical replicate 3 — viability, normalised (%) = 52.5 (active)

Next reagents follow.
KMT2D (GeneID 8085), rucaparib or vehicle Rucaparib, cell line OCI-C5x (clear cell), technical replicate 1 — viability, normalised (%) = 52.4 (active)
KMT2D (GeneID 8085), rucaparib or vehicle Rucaparib, cell line OCI-C5x (clear cell), technical replicate 2 — viability, normalised (%) = 30.2 (active)
KMT2D (GeneID 8085), rucaparib or vehicle Rucaparib, cell line OCI-C5x (clear cell), technical replicate 3 — viability, normalised (%) = 36.3 (active)
KMT2D (GeneID 8085), rucaparib or vehicle Rucaparib, cell line OCI-P5x (serous), technical replicate 1 — viability, normalised (%) = 51.9 (active)
KMT2D (GeneID 8085), rucaparib or vehicle Rucaparib, cell line OCI-P5x (serous), technical replicate 2 — viability, normalised (%) = 63 (active)
KMT2D (GeneID 8085), rucaparib or vehicle Rucaparib, cell line OCI-P5x (serous), technical replicate 3 — viability, normalised (%) = 57.7 (active)
KMT2D (GeneID 8085), rucaparib or vehicle Vehicle, cell line OCI-C5x (clear cell), technical replicate 1 — viability, normalised (%) = 37.2 (active)
KMT2D (GeneID 8085), rucaparib or vehicle Vehicle, cell line OCI-C5x (clear cell), technical replicate 2 — viability, normalised (%) = 37 (active)
KMT2D (GeneID 8085), rucaparib or vehicle Vehicle, cell line OCI-C5x (clear cell), technical replicate 3 — viability, normalised (%) = 54.1 (active)
KMT2D (GeneID 8085), rucaparib or vehicle Vehicle, cell line OCI-P5x (serous), technical replicate 1 — viability, normalised (%) = 60.8 (active)
KMT2D (GeneID 8085), rucaparib or vehicle Vehicle, cell line OCI-P5x (serous), technical replicate 2 — viability, normalised (%) = 53.3 (active)
KMT2D (GeneID 8085), rucaparib or vehicle Vehicle, cell line OCI-P5x (serous), technical replicate 3 — viability, normalised (%) = 61.4 (active)
BNIP2 (GeneID 663), rucaparib or vehicle Rucaparib, cell line OCI-C5x (clear cell), technical replicate 1 — viability, normalised (%) = 49.7 (active)
BNIP2 (GeneID 663), rucaparib or vehicle Rucaparib, cell line OCI-C5x (clear cell), technical replicate 2 — viability, normalised (%) = 64.6 (active)
BNIP2 (GeneID 663), rucaparib or vehicle Rucaparib, cell line OCI-C5x (clear cell), technical replicate 3 — viability, normalised (%) = 69.6 (active)
BNIP2 (GeneID 663), rucaparib or vehicle Rucaparib, cell line OCI-P5x (serous), technical replicate 1 — viability, normalised (%) = 68.7 (active)
BNIP2 (GeneID 663), rucaparib or vehicle Rucaparib, cell line OCI-P5x (serous), technical replicate 2 — viability, normalised (%) = 67.9 (active)
BNIP2 (GeneID 663), rucaparib or vehicle Rucaparib, cell line OCI-P5x (serous), technical replicate 3 — viability, normalised (%) = 79.7 (active)
BNIP2 (GeneID 663), rucaparib or vehicle Vehicle, cell line OCI-C5x (clear cell), technical replicate 1 — viability, normalised (%) = 45.3 (active)
BNIP2 (GeneID 663), rucaparib or vehicle Vehicle, cell line OCI-C5x (clear cell), technical replicate 2 — viability, normalised (%) = 48.2 (active)
BNIP2 (GeneID 663), rucaparib or vehicle Vehicle, cell line OCI-C5x (clear cell), technical replicate 3 — viability, normalised (%) = 47.6 (active)
BNIP2 (GeneID 663), rucaparib or vehicle Vehicle, cell line OCI-P5x (serous), technical replicate 1 — viability, normalised (%) = 55.3 (active)
BNIP2 (GeneID 663), rucaparib or vehicle Vehicle, cell line OCI-P5x (serous), technical replicate 2 — viability, normalised (%) = 72.6 (active)
BNIP2 (GeneID 663), rucaparib or vehicle Vehicle, cell line OCI-P5x (serous), technical replicate 3 — viability, normalised (%) = 51.4 (active)
